The conditions of this series: patients with at least stable disease.

Read-outs that look alike come from different tables or passages of the source.

Take `COc1ncc(-c2nc3c(n2C(C)C)[C@H](c2ccc(Cl)cc2)N(c2cc(Cl)cn(C)c2=O)C3=O)c(OC)n1` [HDM201, (S)-5-(5-Chloro-1-methyl-2-oxo-1,2-dihydro-pyridin-3-yl)-6-(4-chloro-phenyl)-2-(2,4-dimethoxy-pyrimidin-5-yl)-1-isopropyl-5,6-dihydro-1H-pyrrolo[3,4-d]imidazol-4-one]: the “Relative dose intensity during the first 32 weeks of treatment, Median” value is, setting by setting: (Regimen 1A ≥100 mg (n = 20)) 0.73; (Regimen 1B ≥120 mg (n = 20)) 0.87; (Regimen 2A ≥7.5 mg (n = 13)) 0.97; (Regimen 2C ≥15 mg (n = 19)) 1.

Values taken from US20210363254A1, “PHARMACEUTICAL COMBINATIONS” (Novartis AG, priority 2018, published 2021).
